Chains of the proteins cited; added tags and fusions are not shown. Lines headed by an entry give the natural chain unless they say otherwise; changes in a name come on top.
UniProt P00740: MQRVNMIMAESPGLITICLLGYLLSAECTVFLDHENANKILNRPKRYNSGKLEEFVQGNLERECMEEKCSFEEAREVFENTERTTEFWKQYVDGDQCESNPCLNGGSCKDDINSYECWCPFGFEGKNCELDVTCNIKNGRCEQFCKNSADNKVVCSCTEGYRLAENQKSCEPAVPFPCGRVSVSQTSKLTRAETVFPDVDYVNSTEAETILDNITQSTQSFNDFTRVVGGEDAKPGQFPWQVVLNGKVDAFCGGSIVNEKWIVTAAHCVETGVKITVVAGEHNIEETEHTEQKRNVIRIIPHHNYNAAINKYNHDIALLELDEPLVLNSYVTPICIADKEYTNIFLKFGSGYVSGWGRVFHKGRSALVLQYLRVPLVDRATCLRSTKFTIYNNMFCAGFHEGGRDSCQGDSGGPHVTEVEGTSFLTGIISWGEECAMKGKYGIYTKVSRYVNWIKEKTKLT
UniProt P00742: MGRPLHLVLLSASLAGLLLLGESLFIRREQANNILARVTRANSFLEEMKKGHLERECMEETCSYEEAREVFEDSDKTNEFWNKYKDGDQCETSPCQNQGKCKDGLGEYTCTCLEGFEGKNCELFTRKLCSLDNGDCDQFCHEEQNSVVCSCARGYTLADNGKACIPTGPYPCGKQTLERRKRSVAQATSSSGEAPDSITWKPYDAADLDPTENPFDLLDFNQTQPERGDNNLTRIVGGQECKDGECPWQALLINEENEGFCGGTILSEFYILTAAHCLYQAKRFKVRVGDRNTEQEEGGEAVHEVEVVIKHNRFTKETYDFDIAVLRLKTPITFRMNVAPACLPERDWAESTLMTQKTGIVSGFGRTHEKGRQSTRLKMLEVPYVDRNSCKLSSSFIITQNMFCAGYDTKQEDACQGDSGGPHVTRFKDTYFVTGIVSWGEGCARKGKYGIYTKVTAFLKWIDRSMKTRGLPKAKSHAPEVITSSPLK

According to patent US20170226225A1 (Merck Sharp & Dohme, published 2017):

Key:
[1] = target: Human Factor IXa Protease (human) (UniProt P00740); test: SPR (Biacore T200), mAb captured on anti-human IgG (Fc) chip, protein as analyte
[2] = target: Human Factor Xa Protease (human) (UniProt P00742); test: as above
[3] = target: Human Factor IXa Protease (human) (UniProt P00740); test: SPR (Biacore T200): antibody captured on anti-human IgG (Fc) chip, analyte at 500 nM (single concentration), anti-RSV IgG4 as reference
[4] = target: Human Factor Xa Protease (human) (UniProt P00742); test: as above

Measured: binding

B1: αFXI-13654p-IgG4 (S228P) (K-)/kappa (antibody, V domains shown)
VH: EVQLVESGGGLVKPGGSLRLSCAASGFTFSSYSMNWVRQAPGKGLEWVSSISSSSSYIYYADSVKGRFTISRDNAKNSLYLQMNSLRAEDTAVYYCARSYYDYDQGYGMDVWGQGTTVTVSS
VL: DIQMTQSPSSVSASVGDRVTITCRASQGISSWLAWYQQKPGKAPKLLIYAASSLQSGVPSRFSGSGSGTDFTLTISSLQPEDFATYYCQQVNSYPITFGGGTKVEIKR
notes: Human IgG4 S228P heavy chain lacking the C-terminal lysine; kappa light chain
no binding (tested: 500 nM): all assays above

No constants are given. Whether binding was seen depends on the method and setting.
